Results: patent US20260250409A1
Positions count from the first letter of the chain named. Results are given in words; binding and its absence hold for the method and conditions named. Some binding calls cover weakened binding; strength is not graded here.

Sequences of proteins named here, by UniProt entry; tags and fusion partners are left off. Residues count along the entry.
UniProt Q07108, residues 62-199: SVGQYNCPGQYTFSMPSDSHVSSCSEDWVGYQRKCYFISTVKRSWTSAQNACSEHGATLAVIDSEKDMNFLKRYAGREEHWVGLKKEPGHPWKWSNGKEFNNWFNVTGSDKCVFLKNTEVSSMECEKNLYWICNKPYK

T1: CD84 (human) (UniProt Q9UIB8)
T1 sequence (looked up): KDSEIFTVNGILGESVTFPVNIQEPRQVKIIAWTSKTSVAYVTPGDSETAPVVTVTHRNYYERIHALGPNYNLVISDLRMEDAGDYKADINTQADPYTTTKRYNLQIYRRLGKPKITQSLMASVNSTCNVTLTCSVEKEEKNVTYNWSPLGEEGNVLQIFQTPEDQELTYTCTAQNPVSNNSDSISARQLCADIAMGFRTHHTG

B1: C2 scFv (scFv)
scFv: QVQLQQSGPGLVKPSQTLSLTCAISGDSVSSNSASWNWIRQSPSRGLEWLGKVEYRSKWYDEYAPSVKSRIAIRPDTSKNQVSLHLISVTPDDTAVYYCARDSYNGHAFDGFDVWGQGTLVTVSSGGGGSGGGGSGGGGSGGGGSQSVLTQPPSVSAAPGQKVTISCSGSSSNIGDNLVSWYQQLPGTAPKLLIYDNNKRPSGIPDRFSGSKSGTSATLDITGLQTGDEADYYCESWDNNLTAEVFGTGTKVTVL
B2: G1 scFv (scFv)
scFv: QVQLQQSGPGLVKPSQTLSLTCAISGDSVFSTTASWNWIRQSPSRGLEWLGKTEYRSKWFDEYAPSVKGRIAIRPDTSRNQVSLQLNSMTPEDTAVYFCVRDSYNGYDFDGFDIWGQGTTVTVSSGGGGSGGGGSGGGGSGGGGSQSVVTQPPSVSAAPGQKVTISCSGSSSNIGNNYVSWYQQLPGTAPKLLIYDNNKRPSGIPDRFSGSKSGTSATLGITGLQTGDEADYYCGTWDSSLSAEMFGGGTKVTVL
B3: H2 scFv (scFv)
scFv: B2 scFv with T32N, T33S, R79K, M89V, F98Y, T120L, M245V, V252L
B4: C1 scFv (scFv)
scFv: QVQLQQSGPGLVKPSQTLSLTCAISGDSVSSNSASWNWIRQSPSRGLEWLGKTEYRSKWYYEFAPSVKSRITITPDTSKNQFSLQLNSVTPEDTAVYYCVRDSYNGYDFDGFDIWGQGTLVTVSSGGGGSGGGGSGGGGSGGGGSQSVLTQPPSVSAAPGQKVTISCSGSSSNIGSNYVAWYQQLPGTAPKLLIYDTNKRPSGIPDRFSGSKSGTSATLGITGLQTGDEADYYCGTWDSSLSAEVFGTGTKVTVL
B5: F2 scFv (scFv)
scFv: QVQLQQSGPGLVKPSQTLSLTCAISGDSVFSNSASWNWIRQSPSRGLEWLGKTEYRSKWFDEYAPSVKGRIAIRPDTSKNQVSLQLNSVTPEDTAVYYCVRDSYNGYDFDGFDIWGQGTLVTVSSGGGGSGGGGSGGGGSGGGGSQSVLTQPPSVSAAPGQKVTISCSGGSSNIEKNYVSWYQQLPGTAPKLLIYDTNKRPSGIPDRFSGSKSGTSATLGITGLQTGDEADYYCGAWDNILNSEMFGGGTKLTVL
B6: H3 scFv (scFv)
scFv: QVQLQQSGPGLVKPSQTLSLTCDISGDSVFSNTASWNWIRQSPSRGLEWLGKTEYRSQWLHEYAPSVRSRIAIRPDTSKNQVSLQLSFVTPEDTAVYYCVRDSYNGYAFDGFDTWGQGTLVTVSSGGGGSGGGGSGGGGSGGGGSQSVVTQPPSVSAAPGQKVTISCSGRNSNIANNFVSWYRQLPGTAPKLLIYDNNKRPSGIPDRFSGSKSGTSATLAITGLQTGDEADYYCESWDSSLTAEVFGTGTKVTVL
B7: F1 scFv (scFv)
scFv: QVQLQQSGPGLVKPSQTLSLTCAISGDSVFSNSASWNWIRQSPSRGLEWLGKTEYRSKWFDEYAPSVKGRIAIRPDTSKNQVSLQLNSVTPEDTAVYYCVRDSYNGYDFDGFDIWGQGTLVTVSSGGGGSGGGGSGGGGSGGGGSQSVLTQPPSVSAAPGQQVIISCSGSSSNVGNNYVAWYQQVPGAAPRLLIYDNYKRPSGIPDRFSGSKSGTSATLGITGLQSGDEADYYCGSWDSSLSAEVFGGGTKLTAL
B8: A1 scFv (scFv)
scFv: QVQLQQSGPGLVQPSRTLSLTCAISGDSISSNTASWNWIRQSPSRGLEWVGKTEYRSGWFFEYAPSVGGRVNISPDTSKNQFSLQLNSVTPEDTAVYFCARDSYNDYDNDGFDIWGQGTLVTVSSGGGGSGGGGSGGGGSGGGGSQSVLTQPPSVSAAPGQKVTISCSGSSSNIGSNYVAWYQQLPGTAPKLLIYDTNKRPSGIPDRFSGSKSGTSATLGITGLQTGDEADYYCGTWDSSLSAEVFGTGTKVTVL
B9: F12 scFv (scFv)
scFv: QVQLQQSGPGLVKPSQTLSLTCAISGDSVSSNSASWNWIRQSPSRGLEWLGKVEYRSKWYDEYAPSVKSRIAIRPDTSKNQVSLHLISVTPDDTAVYYCARDSYNGHAFDGFDVWGQGTMVTVSSGGGGSGGGGSGGGGSGGGGSQSVVTQPPSVSAAPGQKVTISCSGSSSNIGNNYVSWYQQLPGTAPKLLIYDNNKRPSGIPDRFSGSKSGTSATLGITGLQTGDEADYYCGTWDSSLSAEVFGGGTKVTVL
B10: B8 scFv (scFv)
scFv: QVQLQQSGPGLVKPSQTLSLTCAISGDSVSSNSASWNWIRQSPSRGLEWLGKVEYRSKWYDEYAPSVKSRIAIRPDTSKNQVSLHLISVTPDDTAVYYCARDSYNGHAFDGFDVWGQGTMVTVSSGGGGSGGGGSGGGGSGGGGSQSVLTQPPSLSAAPGQRVTISCSGTTSNIANNFVSWYQQLSGSAPKLLINDNNKRPSGIPDRFSGSKSGASATLAITGLQTEDEADYYCGVWDNSLNAEVFGGGTKVTVL

target: CD69 (human) (UniProt Q07108); assay: ELISA validation of phage display clones

| binding | Binder |
| --- | --- |
| binds | B1 |
| binds | B2 |
| binds | B3 |
| binds | B4 |
| binds | B5 |
| binds | B6 |
| binds | B7 |
| binds | B8 |

target: T1, CD84 (human); assay: ELISA validation of phage display clones

| binding | Binder |
| --- | --- |
| binds | B9 |
| binds | B10 |

target: CD69 (human) (UniProt Q07108); assay: scFv identified by phage display in a human naive Fab phage library

| binding | Binder |
| --- | --- |
| binds | B1 |
| binds | B2 |
| binds | B3 |
| binds | B6 |
| binds | B7 |
| binds | B8 |

target: T1, CD84 (human); assay: as above

| binding | Binder |
| --- | --- |
| binds | B9 |
| binds | B10 |
